According to patent US20140378387A1:
No constants are given. Whether binding was seen depends on the method and setting. In cells and extracts the contact can be indirect. Some binding calls cover weakened binding; strength is not graded here.

Protein sequences, listed by entry. Tags and fused reporters are not part of them. Residues count along the entry.
UniProt P04797: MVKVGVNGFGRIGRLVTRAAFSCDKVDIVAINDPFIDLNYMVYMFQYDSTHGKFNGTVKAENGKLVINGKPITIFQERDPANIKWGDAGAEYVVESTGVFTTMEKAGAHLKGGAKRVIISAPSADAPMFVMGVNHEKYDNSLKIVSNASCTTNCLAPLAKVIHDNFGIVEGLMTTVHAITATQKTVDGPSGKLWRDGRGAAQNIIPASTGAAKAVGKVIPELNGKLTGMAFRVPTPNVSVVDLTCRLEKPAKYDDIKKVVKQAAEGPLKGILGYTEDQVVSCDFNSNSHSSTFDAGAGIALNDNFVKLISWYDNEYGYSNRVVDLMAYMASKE
UniProt P19491, residues 22-883: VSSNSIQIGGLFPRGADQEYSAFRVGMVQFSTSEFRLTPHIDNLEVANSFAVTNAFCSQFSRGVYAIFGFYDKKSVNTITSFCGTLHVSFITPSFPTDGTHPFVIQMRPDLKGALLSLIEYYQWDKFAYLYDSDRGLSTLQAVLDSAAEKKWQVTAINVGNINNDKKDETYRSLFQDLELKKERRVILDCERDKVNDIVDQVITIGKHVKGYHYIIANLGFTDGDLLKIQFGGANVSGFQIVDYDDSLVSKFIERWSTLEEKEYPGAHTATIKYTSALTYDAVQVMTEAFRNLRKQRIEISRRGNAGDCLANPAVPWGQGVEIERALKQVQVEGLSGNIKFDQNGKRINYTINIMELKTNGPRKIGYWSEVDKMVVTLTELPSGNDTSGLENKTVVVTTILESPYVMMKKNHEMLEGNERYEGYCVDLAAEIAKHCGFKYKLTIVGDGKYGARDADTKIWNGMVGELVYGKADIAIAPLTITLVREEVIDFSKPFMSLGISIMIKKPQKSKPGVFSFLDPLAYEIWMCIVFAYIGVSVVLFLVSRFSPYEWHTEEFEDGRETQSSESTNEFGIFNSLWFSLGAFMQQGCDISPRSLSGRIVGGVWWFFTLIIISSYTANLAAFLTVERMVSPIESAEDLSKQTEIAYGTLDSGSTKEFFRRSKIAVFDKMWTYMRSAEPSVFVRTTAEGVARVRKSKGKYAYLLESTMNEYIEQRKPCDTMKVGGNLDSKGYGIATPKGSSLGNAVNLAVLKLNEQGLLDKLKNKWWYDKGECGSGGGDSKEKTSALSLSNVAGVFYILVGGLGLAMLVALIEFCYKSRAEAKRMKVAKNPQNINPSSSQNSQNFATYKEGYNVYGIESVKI

Legend:
[1] = molecular target: GAPDH (glyceraldehyde-3-phosphate dehydrogenase), rat, endogenous (rat) (UniProt P04797); test: co-immunoprecipitation from rat spinal cord protein extract with a GluR2 antibody
[2] = molecular target: GAPDH (glyceraldehyde-3-phosphate dehydrogenase), rat, endogenous (rat) (UniProt P04797); test: co-immunoprecipitation from rat spinal cord tissue with a GluR2 antibody

- binding [1]: binds
- binding [2]: binds
Substance: GluR2 subunit of AMPAR (rat, endogenous, from spinal cord protein extract) (from UniProt P19491 22-883) (receptor)
